Results published in PubChem BioAssay AID2685 (National Center for Advancing Translational Sciences (NCATS), 2010).
Screen size: about 320,000 compounds; about 2,100 (0.66%) were called active. Calls follow the shape of the dose curve; as a rule, active = well fitted inhibition curve with a large enough effect in the signal ratio, with a control signal flat (not every such curve was filed as active); inconclusive = small, poorly fitted or top-dose-only effect, or effect the other way, or a change in a side signal; inactive = flat fitted curve, though single readings scatter; the % refers to the signal ratio. The inconclusive results got no clear call from the source. Where the call is inconclusive, the potency comes from a doubtful curve fit.

Test: qHTS Assay for Lipid Storage Modulators in Drosophila S3 Cells
Details: BODIPY lipid droplet fluorescence, 18-24 h, cells fed with added oleic acid; lipid storage change, negative = inhibition: at 46.1 µM (top of the series) unless noted
Procedure, shortened: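 Drosophila S3 cells got compounds at several concentrations plus oleic acid (400 uM solution). Laser-scanning cytometry with 488 nm excitation read lipid droplets at 500-530 nm and cells at 575-640 nm. Percent activity was relative to 20 uM Triacsin C.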
% is scaled to controls: 0 for no effect and ±100 for the full control effect; potency is read from the fitted curve at half-maximal effect.

Structure (SMILES) | Potency | lipid storage change, negative = inhibition
COc1cc(C(=O)NC(C)C2CC3CCC2C3)ccc1OC(F)F (stereo not given) | inconclusive: 0.92 µM [activator, full curve, poor fit] | –
Nc1nc2nc(-c3ccc(OCc4ccccc4)cc3)cc(C(F)(F)F)n2n1 | inconclusive: 0.731 µM [activator, single point] | –
O=C(Cn1nc(CNc2ccc(Br)cc2)[n+]2c1CCCCC2)c1ccc([N+](=O)[O-])cc1 | – | inconclusive: -14.3%
COc1ccccc1CNC(=O)COC(=O)Cc1c[nH]c2ccccc12 | inconclusive: 2.06 µM [falling, partial curve] | –
O=C(CCc1nnc(CCCCc2ccccc2)o1)NCCC1CCCCO1 (stereo not given) | – | inconclusive: -40%
Cc1nn(C)c(C)c1CN(C)S(=O)(=O)c1ccc2ccccc2c1 | inconclusive: 10.3 µM [cytotoxic, partial curve] | –
COC(=O)c1ccc(NS(=O)(=O)c2ccc3[nH]c(=O)oc3c2)cc1 | inconclusive: 29.1 µM [activator, partial curve, poor fit] | –
CCN(CC)Cc1ccccc1CNC(=O)c1cccc(S(=O)(=O)Nc2ccc3c(c2)OCO3)c1 | – | inconclusive: -7.11%
Cc1[nH]c(=O)[nH]c(=O)c1S(=O)(=O)N1CCC(C(=O)NC(C)c2ccccc2)CC1 (stereo not given) | – | inconclusive: -15.4%
Cc1ccccc1NS(=O)(=O)c1ccc(C(=O)N2CCN(c3ccccn3)CC2)cc1 | – | inconclusive: 25%
COc1cc(/C=N/N(c2ccccc2)c2ccccc2)ccc1O | – | inconclusive: -2.86%
CCN(CC)S(=O)(=O)c1ccc(NC(=O)CCNC(=O)c2ccccc2)cc1 | – | inconclusive: 4.15%
CS(=O)(=O)N1CCc2cc(C(=O)OCC(=O)c3ccccc3)ccc21 | – | inconclusive: -19.3%
COc1ccc(NC(=O)CCS(=O)(=O)c2cccc3nonc23)cc1 | inconclusive: 29.1 µM [rising, partial curve, poor fit] | –
COc1ccc(C(=O)NCCc2nnc3ccc(SCC(=O)Nc4ccccc4)nn23)cc1 | inconclusive: 29.1 µM [falling, single point] | –
Oc1ccc2ccccc2c1CNc1ccccn1 | inconclusive: 11.6 µM [activator, partial curve, poor fit] | –
C=CCn1c(SCC(=O)N2CCN(C(=O)c3ccco3)CC2)nc2sc(CC)cc2c1=O | inconclusive: 0.116 µM [activator, full curve, poor fit] | –
CCOC(=O)C(=O)NCC(c1cccs1)S(=O)(=O)c1ccc(C)cc1 (stereo not given) | inconclusive: 14.6 µM [activator, partial curve] | –
CCN(CC(=O)NCc1cccs1)C(=O)c1cccc(S(=O)(=O)NC)c1 | – | inconclusive
CC(=O)c1cccc(NS(=O)(=O)c2ccc3c(c2)N(C(C)=O)CCO3)c1 | – | inconclusive: -49.5%
O=C(N/N=C/c1ccc(N2CCCCC2)o1)c1ccccc1 | inconclusive: 29.1 µM [cytotoxic, single point] | –
Cc1sc2ncn(CC(=O)N3CCN(c4ccc(F)cc4)CC3)c(=O)c2c1S(=O)(=O)N1CCOCC1 | inconclusive: 0.164 µM [falling, full curve, poor fit] | –
CC(C)c1ccc(NC(=O)NCc2cccnc2)cc1 | – | inconclusive: 21%

An excerpt from above in order of SMILES length, high to low.
Structure (SMILES) | Potency | lipid storage change, negative = inhibition
Cc1ccccc1NS(=O)(=O)c1ccc(C(=O)N2CCN(c3ccccn3)CC2)cc1 | – | inconclusive: 25%
CC(=O)c1cccc(NS(=O)(=O)c2ccc3c(c2)N(C(C)=O)CCO3)c1 | – | inconclusive: -49.5%
COc1ccccc1CNC(=O)COC(=O)Cc1c[nH]c2ccccc12 | inconclusive: 2.06 µM [falling, partial curve] | –

Remaining list, next part:

Structure (SMILES) | Potency | lipid storage change, negative = inhibition
COc1cccc(NC(=O)NCCCN2CCN(c3ccc(F)cc3)CC2)c1 | – | inconclusive: 3.63%
CC(C)(C)c1nnc(NC(=O)c2cccnc2)s1 | – | inconclusive: 143%
Cc1ccc(C(=O)NC(=S)NNC(=O)CCN2CCOCC2)cc1 | – | inconclusive: -39.4%
CCc1nn(CC(=O)NC(C)CCc2ccccc2)c(=O)c2cc3occc3n12 (stereo not given) | inconclusive: 11.6 µM [falling, single point] | –
O=C1NC(=O)c2cc(Br)cc3cccc1c23 | – | inconclusive: 14%
Cc1cc(=O)oc2c3c(cc(OCC(=O)NC4CC4)c12)OC(C)(C)CC3 | inconclusive: 20.6 µM [falling, single point] | –
CCC(C)Sc1nnc(CSc2nc(C)cc(C)n2)n1C (stereo not given) | – | inconclusive: -4.93%
COc1cccc(N2CC(NC(=O)c3ccc4ccccc4c3)CC2=O)c1 (stereo not given) | inconclusive: 14.6 µM [activator, partial curve] | –
Nc1c(C(=O)CSc2ncccn2)c(=O)[nH]c(=O)n1C1CC1 | – | inconclusive: 8.59%
CCCn1c(=O)c2ccccc2n2c(SCc3nc4ccccc4s3)nnc12 | – | inconclusive: 11.1%
COCCCNC(=O)Cn1cc(/C=C(\C#N)C(=O)NC2CCCC2)c2ccccc21 | – | inconclusive: -37.3%
CC(C)CC1NC(=O)N(CC(=O)N2CCN(S(=O)(=O)c3ccc4ccccc4c3)CC2)C1=O (stereo not given) | – | inconclusive: 29.3%
O=C(CN1C(=O)/C(=C/c2ccc(C(F)(F)F)cc2)Sc2ccccc21)NCCCN1CCOCC1 | – | inconclusive: -102%
COc1ccc(-c2noc(CCC(=O)NC3CCN(Cc4ccccc4)CC3)n2)cc1 | inconclusive: 32.6 µM [falling, single point] | –
O=C(COc1ccccc1Br)c1ccc(O)cc1O | – | inconclusive: 28.2%
CC(=O)c1c(C)[nH]c(C(=O)COC(=O)CNS(=O)(=O)c2ccccc2)c1C | – | inconclusive: 17.9%
Cc1cc(F)ccc1S(=O)(=O)N1CCCOC1CNC(=O)C(=O)NCCN1CCOCC1 (stereo not given) | inconclusive: 25.9 µM [activator, partial curve] | –
COc1cccc(CN(C)CC(=O)Nc2ccccc2N2CCOCC2)c1OC | – | inconclusive: -14.7% [at 9.22 µM]
Cc1cccc(NC(=O)CN2C(=O)S/C(=C\c3ccccn3)C2=O)c1 | – | inconclusive: -35.2% [cytotoxic] [at 0.369 µM]
O=C(Nc1ccc2c(c1)OCCO2)c1ccncc1 | – | inconclusive: -14.6%
CC1(C)OC(=CC=Nc2ccc(Cl)cc2)OC1(C)C | inconclusive: 29.1 µM [falling, single point] | –
Cc1cccc(CNS(=O)(=O)c2ccc(-c3ccc(=O)[nH]n3)s2)c1 | inconclusive: 1.84 µM [activator, partial curve, poor fit] | –
